The test system of the assay is T47D cells. Nature of the assay: Cell survival/growth inhibition assay in ER+ T47D breast cancer cells. Type of assay: cell-based. Particulars: Homo sapiens, dose-response. The method, then:
The T47D cell line is also an ER positive control cell line.
To determine if the novel boron-based prodrugs have equal or better efficacy than tamoxifen, in vitro breast cancer cell proliferation assays were performed using two estrogen receptor positive cell lines, MCF-7 and T47D.
To test if the prodrugs can inhibit growth in another breast cancer cell line that also expresses the estrogen receptor, T47D cells were used. Survival assays using T47D cells confirmed the efficacies of the prodrugs (FIG. 4).

Structures are written as SMILES. pIC50: −log10 of the molar value.

With `CC/C(=C(\c1ccccc1)c1ccc(OCCN(C)C)cc1)c1ccccc1` [Tamoxifen], the pIC50 (commonly the negative decadic logarithm of the IC50, by convention in mol/L) is 5.95.

For the origin of these results see patent US9353132B2, “Boron-based 4-hydroxytamoxifen and endoxifen prodrugs as treatment for breast cancer” (XAVIER UNIVERSITY OF LOUISIANA, priority 2012, dated 2016).
